Measurements taken from the supplement of paper PMC12764529.
± gives the half width of the 95% confidence interval. For many entries, trypsin and chymotrypsin gave values far apart.

Legend:
[1] = folding stability dG unfold from trypsin proteolysis; higher = more stable
Description: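 Folding stability of de novo designed mini-proteins (<80 aa, no Cys; designed by TrROS, TrMRF, ProteinMPNN and the joint model) was measured by cDNA display proteolysis with trypsin and chymotrypsin. Each protease was used at 11 concentrations in a threefold dilution series plus a no-protease condition. K50 was inferred by Bayesian fitting of sequencing counts, and dG unfold was derived against a sequence-predicted unfolded-state K50 (Tsuboyama et al. method). Sequences shown include variable-length N-terminal GS-type padding (SAGGSAGG...) inside a display construct carrying a PA tag. Rows were kept only if the AF2 dimer inter-PAE was >15, to exclude likely homo-oligomers.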

[2] = folding stability dG unfold (combined trypsin and chymotrypsin); higher = more stable
Method in brief: (§1)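 Bayesian fitting of sequencing counts gave K50 for each design. Unfolding free energy followed by setting this against a sequence-predicted unfolded-state K50 and a shared folded-state K50, either per protease or with trypsin and chymotrypsin combined. The designs, under 80 residues and lacking cysteine, were digested in a PA-tagged cDNA display format at 11 threefold-diluted protease concentrations and without protease, and only those with AlphaFold2 dimer inter-PAE above 15 were kept.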

[3] = folding stability dG unfold from chymotrypsin proteolysis; higher = more stable
Method in brief: as §1

| Sequence | folding stability dG unfold [1] | folding stability dG unfold [2] | folding stability dG unfold [3] |
| --- | --- | --- | --- |
| SAGGSAGGSAGGRIHVPNGKTKNFDSPEDFEEELKGDPVDDVSIHDPEGGKEKEIPVKPSAGGSAGGSAGGS [r10_1191_TrROS] | -0.554 ± 0.093 kcal/mol | 1.01 ± 0.06 kcal/mol | 1.48 ± 0.025 kcal/mol |
| SMEKIKKEIEKAAKELGIKVKSIKIEENPETKTVNVTVEIENGKTINFTFKKKKNGTYEMDINEIKKQAKSA [r9_85_TrMRF] | 2.42 ± 0.095 kcal/mol | > 6 kcal/mol | 6.21 ± 0.24 kcal/mol |
| SAGGSAGGKTITVKLEDGTVLKITVEKDEDGKLTVKVEVYKLDKNGKPLSEEEVKNLVKELLEKSAGGSAGG [r6_234_TrROS_Hall] | 1.96 ± 0.091 kcal/mol | 3.42 ± 0.18 kcal/mol | 4 ± 0.061 kcal/mol |
| SAMKIEIEEKDGEKVIKIEMKFKTKDGKEVTMTFEFKLENGEKIEIKIEEGMSLEEILEKLKKALEKAKSAG [r14_618_TrROS_Hall] | 2.37 ± 0.096 kcal/mol | 5.33 ± 0.43 kcal/mol | 5.37 ± 0.24 kcal/mol |
| SAGGSAGGSANIKIEIYKHPDGWWIVKIEITVMRMVYDPEDGKMKMEMRTHEFTFIIPPGEISAGGSAGGSA [r18_34_TrROS] | 3.7 ± 0.22 kcal/mol | 5.94 ± 0.79 kcal/mol | 6.02 ± 0.21 kcal/mol |
| SPITADQIKDILRELFPNWEIEDIEVNPGNGEYEIKFPDGWKVEVHVPPDGRIHIRIRYPGKERTIQIPVSA [r9_304_TrROS] | 1.34 ± 0.035 kcal/mol | 3.27 ± 0.23 kcal/mol | 3.87 ± 0.14 kcal/mol |
| SAGETTPVLTIEEKEITVGDKKYKVTSITFSFPGSLLTLSTVTTPEPTTITITSLYDPVVGTVVTTVAGSAG [r5_316_JUSTAS] | 2.69 ± 0.14 kcal/mol | 4.49 ± 0.18 kcal/mol | 4.77 ± 0.094 kcal/mol |
| SAGGSAGGSAGMAPNAPNLRVRVQVFNENGEPIGEIELPAADVEEFARATGLPVRVLEVSSAGGSAGGSAGG [r17_200_TrMRF] | -0.31 ± 0.21 kcal/mol | 2.01 ± 0.088 kcal/mol | 2.43 ± 0.025 kcal/mol |
| SAGGSAGGSMSTLNIKLHPPPTVSFEELKEKLLEEYPNATVTFSREGETYTLTVTSDDPKLVSSAGGSAGGS [r20_175_JUSTAS] | 1.19 ± 0.056 kcal/mol | 2.13 ± 0.71 kcal/mol | 3.27 ± 0.19 kcal/mol |
| SAGKIKPGETIKVTIKIYNEDGELVKEEKLEFKSLEEAKKAIEELAKKIAEETGKPVKVEVKIEKVKAKSAG [r5_232_TrROS_Hall] | 1.11 ± 0.25 kcal/mol | 2.32 ± 0.69 kcal/mol | 3.82 ± 0.76 kcal/mol |
| SPALEIARELAEKNNIKDVDVKVEEQPDPDNGRPWYEAEATFTFPGNGKKYQIKIWFWPNGNFQIDIQPYSA [r9_724_TrROS] | 1.56 ± 0.061 kcal/mol | 3.06 ± 0.27 kcal/mol | 3.64 ± 0.079 kcal/mol |
| SEYDWIEIEIFFFIDSPEMANEIADIFEELGFNVEVKVWPYPDMYIVEVTIEIPIPPPPPPPEDPEDKKKSA [r9_863_TrROS] | 1.15 ± 0.2 kcal/mol | 3.59 ± 0.31 kcal/mol | 4.06 ± 0.41 kcal/mol |
| SAGDVIKIELWIPPGEEMTANEMIDHIKQQLAQRPGFKITEIPDIKIEPYPDNWYRVEIYVKIELPDPSAGG [r19_396_TrROS] | 2.46 ± 0.2 kcal/mol | 4.59 ± 0.29 kcal/mol | 4.65 ± 0.14 kcal/mol |
| SAGGSVWEIEYLIPPNETLEDAASWIANEIMEWLQERHGGPFKIDVKPVERPPDDWTYVKVTISFDSAGGSA [r2_214_TrROS] | 1.67 ± 0.12 kcal/mol | 3.46 ± 0.31 kcal/mol | 4.1 ± 0.28 kcal/mol |
| SAGGSAKIKLPSKEEVEKLVKELEKKGYKVVSVEVKYDKETKEVYVKIEIYHKKTKKKITLEIKVKSAGGSA [r15_123_TrROS_Hall] | 3.07 ± 0.13 kcal/mol | 4.58 ± 0.39 kcal/mol | 5.24 ± 0.24 kcal/mol |
| SAKKVIKFFDSLEELIEAIEEAASKGEDFEVVFRLPDGSVLHIKVEVDPKTNEIKILEAELRPVSDTDLSAG [r14_455_TrMRF] | 1.35 ± 0.076 kcal/mol | 3.04 ± 0.091 kcal/mol | 3.48 ± 0.069 kcal/mol |
| SKKYEPIATLTLTLTLKDGNKVTIKIEVYRDENGNYTVTITLPNGKKLTFTFPVGEKITLDQLKELLKKLSA [r9_616_TrROS_Hall] | 1.98 ± 0.1 kcal/mol | 3.95 ± 0.23 kcal/mol | 4.32 ± 0.06 kcal/mol |

Quoted from the listing:
SPITADQIKDILRELFPNWEIEDIEVNPGNGEYEIKFPDGWKVEVHVPPDGRIHIRIRYPGKERTIQIPVSA [r9_304_TrROS] | folding stability dG unfold [3]: 3.87 ± 0.14 kcal/mol
SAGGSAKIKLPSKEEVEKLVKELEKKGYKVVSVEVKYDKETKEVYVKIEIYHKKTKKKITLEIKVKSAGGSA [r15_123_TrROS_Hall] | folding stability dG unfold [3]: 5.24 ± 0.24 kcal/mol
SAGGSVWEIEYLIPPNETLEDAASWIANEIMEWLQERHGGPFKIDVKPVERPPDDWTYVKVTISFDSAGGSA [r2_214_TrROS] | folding stability dG unfold [1]: 1.67 ± 0.12 kcal/mol

Next entries follow:

| Sequence | folding stability dG unfold [1] | folding stability dG unfold [2] | folding stability dG unfold [3] |
| --- | --- | --- | --- |
| SAGGFEFEMTQEYWIPWGWRLEVKWRYYFSPDGNINMYPEIEIEPIPIPPPPEPVPVDPNDPDNPDAKSAGG [r19_12_TrROS] | 1.69 ± 0.077 kcal/mol | 3.71 ± 0.22 kcal/mol | 4.52 ± 0.08 kcal/mol |
| SAGGSAGGSAKTIRIVMSKEDVDKLIEEAKKKGYKVKVEVVKDKNGKEVYVVAEIELPPKESAGGSAGGSAG [r3_149_TrROS_Hall] | 1.87 ± 0.069 kcal/mol | 3.58 ± 0.15 kcal/mol | 3.95 ± 0.12 kcal/mol |
| SAIEELAKKLAEELGLEVEVVEVEKEGDRVYVRIKVKVDGKLVYVRIEIERVDEEEGKVEIRIVEVEPVSAG [r14_387_TrROS_Hall] | 2.93 ± 0.11 kcal/mol | 4.56 ± 0.27 kcal/mol | 5.04 ± 0.13 kcal/mol |
| SAGGSAGGSSPVVGGTPPVEEVRVVLDLEDPEEAEKAAEEIRERTGYPVEVEIISPEELEEKASAGGSAGGS [r12_766_JUSTAS] | -0.995 ± 0.33 kcal/mol | 1.1 ± 0.17 kcal/mol | 1.66 ± 0.096 kcal/mol |
| SAGGSAGGSKVKIVEARKNENGQYVLRVRNEDTGETLELTFESKEDAEAALKALEEAGYTIETSAGGSAGGS [r20_177_TrROS_Hall] | 1.52 ± 0.084 kcal/mol | 3.94 ± 0.13 kcal/mol | 4.37 ± 0.087 kcal/mol |
| SAEITLTVNGKKVRFTRNEDGYLTIEVYNADTGELVETFTVPLDEITSVTVTGEDGTITITVSDEALKKSAG [r14_755_TrROS_Hall] | 1.25 ± 0.096 kcal/mol | 3.59 ± 0.16 kcal/mol | 3.76 ± 0.15 kcal/mol |
| VDLNVTAEQIGDKEYRLTVTFPESGKSFTFSVPGSLEEAKEAALKRIKEEYPELDVTSIDFTPVPAPPDLVS [r1_80_JUSTAS] | 3.4 ± 0.1 kcal/mol | 5.37 ± 0.14 kcal/mol | 5.44 ± 0.091 kcal/mol |
| SAGGSAMPVELAKAAGATKVEEHKENGYLFVTLKGEEEVKVVFKVNKDGTLELVSVTLPEEEVEFPSAGGSA [r15_247_TrMRF] | 0.106 ± 0.089 kcal/mol | 1.67 ± 0.25 kcal/mol | 2.3 ± 0.062 kcal/mol |
| SAGGSAGGSAPWDIVPVTITFPIKIKPSPNGKPKEKEIPIKIEMWVIRDPNGNLFVGINISISAGGSAGGSA [r18_284_TrROS] | 3.03 ± 0.21 kcal/mol | 5.01 ± 0.38 kcal/mol | 5.12 ± 0.51 kcal/mol |
| SAGGMKIKVKIKNKETNKVYEAEIVEVKEVGGKTYLFIKLPNGEIKEIPLDEIEEVEVDEETKEITVKSAGG [r13_211_TrROS_Hall] | 1.6 ± 0.077 kcal/mol | 3.77 ± 0.11 kcal/mol | 4.26 ± 0.073 kcal/mol |
| SAGMVRIEIEIRVKPGEELTEEQKELARELAEELRRLLPPGAKIRVVDVEVEERDGELVIRVTIEIEPPSAG [r5_121_TrROS_Hall] | 4.94 ± 0.31 kcal/mol | 4.75 ± 0.42 kcal/mol | 2.5 ± 0.12 kcal/mol |
| SAGGSAGGSAGGKKKKKPKKIKKLTLTVRITVTLENGETVELTARLTLDDDGNLRLEIESAGGSAGGSAGGS [r10_390_TrROS_Hall] | 2.48 ± 0.096 kcal/mol | 4.02 ± 0.43 kcal/mol | 4.64 ± 0.27 kcal/mol |
| SAGYGWVYRSPNGKTMPADDMDEEQMEDMEIVPVEPIPPISINVELEWEFDPNGSLEYKFKIEISIGFSAGG [r19_232_TrROS] | 2.74 ± 0.096 kcal/mol | 4.92 ± 0.14 kcal/mol | 5.22 ± 0.093 kcal/mol |
| SAGARITSVELEEDGSLRLTVELGGLRVTLTFRDGRIESVSVEPLPPPPPPPRVEVERDPETGEWKEKSAGG [r19_254_TrROS_Hall] | 1.76 ± 0.18 kcal/mol | 3.1 ± 0.34 kcal/mol | 3.79 ± 0.13 kcal/mol |
| SAGGSAGGSAGGGRVQVELKARLLVRDPETHELHELELTLRLELPLPPAPPVVTVYRRPSAGGSAGGSAGGS [r10_815_TrROS_Hall] | 0.713 ± 0.25 kcal/mol | 2.05 ± 0.22 kcal/mol | 2.78 ± 0.17 kcal/mol |
| SAGGSAGGSMKKENKPYIKYLVKIELPGPPILDPKIFKSKEEAEKYAKEIAEKYNVKVEVFEESAGGSAGGS [r12_134_TrMRF] | 1.25 ± 0.17 kcal/mol | 2.88 ± 0.16 kcal/mol | 3.26 ± 0.096 kcal/mol |
| SAGGSAGGSMLRIRVYVKDTGEVVELEFDSLEEALAALPPGAEVERIEVVELPPVRTEEQREASAGGSAGGS [r12_851_TrROS_Hall] | 1.88 ± 0.09 kcal/mol | 3.57 ± 0.068 kcal/mol | 3.93 ± 0.1 kcal/mol |
